# Assay results

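Uptake of anthrax lethal toxin into cultured cells, read by FRET (460/530 nm ratio) and reported from the 460 nm channel; the cell line is not named here. Each compound was tested as a concentration series from about 0.0005 to 40 µM. The number is the fitted AC50 of the 460 nm signal alone; lower values mean a more potent effect. A falling signal goes with compounds filed as inhibitors or cytotoxic, a rising one with activators or fluorescent compounds (inferred from the filed classes).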

Values are in µM. Common to all entries: measured here: 460 nm channel. This is a side read-out of the assay, for part of the compounds, not drawn at random. A potency from a partial, single-point or poor curve is only a rough figure. The first word of each remark tells which way the curve ran; it can be opposite to the aim of the assay.

For CCCCCCN(C(=O)CCCCCN1C(=O)NC(c2ccc(-c3ccccc3)cc2)C(C(=O)OCc2ccccc2)=C1C)C(C(=O)NCCCC)c1ccc(OCC(=O)OC)c(C(=O)OC)c1 (centres unmarked) the result was AC50 10 µM (rising, partial curve).
For COc1cc(NC(=O)c2c(F)c(F)c(F)c(F)c2F)c(OC)cc1Cl the result was AC50 10 µM (falling, single point).
For COc1ccc(-c2cc(C(=O)N3CCN(C(c4ccccc4)c4ccccc4)CC3)no2)cc1OC the result was AC50 12.59 µM (falling, partial curve).
For COc1ccccc1/C=c1\sc2nc(-c3cccs3)nn2c1=O the result was AC50 3.162 µM (falling, full curve).
For COCCn1nnnc1CN(CCc1ccc(OC)c(OC)c1)Cc1cc2ccc(C)cc2[nH]c1=O the result was AC50 19.95 µM (falling, partial curve).
For Cc1ccc(C)c(N2CCN(C(=O)CCCCn3c(=O)[nH]c4ccccc4c3=O)CC2)c1 the result was AC50 31.62 µM (falling, single point).
For CN(C)Cc1c(O)ccc2oc(Cc3ccccc3)cc12 the result was AC50 6.31 µM (falling, partial curve).
For Cc1ccc(Cl)c(OCC(O)CN(CCO)CCO)c1 (centres unmarked) the result was AC50 0.07943 µM (falling, full curve).
For CCOC(=O)c1c(C)n(C)c2ccc(OCC(O)CN3CCCCCC3)cc12 (centres unmarked) the result was AC50 7.943 µM (falling, single point).
For Cc1ccc(-c2nc(C(=O)NC3CCCCCC3)no2)cc1 the result was AC50 1.259 µM (falling, full curve, poor fit).
For Cc1cc(C)nc(N2CCC(C(=O)Nc3cccc(C(F)(F)F)c3)CC2)n1 the result was AC50 0.03981 µM (falling, full curve, poor fit).
For CCCc1cc(C(N)=O)c(NC(C)=O)s1 the result was AC50 12.59 µM (rising, partial curve).
For O=C(Oc1ccc2c3c(c(=O)oc2c1)CCCC3)c1ccco1 the result was AC50 5.012 µM (rising, full curve, poor fit).
For CCCN1C(=O)C(O)(CC(=O)c2cccc(OC)c2)c2ccccc21 (centres unmarked) the result was AC50 0.2512 µM (falling, full curve, poor fit).
For COc1ccc([C@@H](Nc2ccccn2)c2cc(C(C)(C)C)cc(C(C)(C)C)c2O)cc1 the result was AC50 5.012 µM (falling, single point).
For Cn1cc(-c2nc3cnc(N4CCNCC4)nc3n(Cc3ccc(F)cc3)c2=O)c2ccccc21 the result was AC50 1.995 µM (rising, full curve).
For C=CCn1c(NC(=O)c2ccccc2Cl)c(C#N)c2nc3ccccc3nc21 the result was AC50 12.59 µM (rising, partial curve).
For CC1(NC(=O)C23CC4CC(CC(C4)C2)C3)CCS(=O)(=O)C1 (centres unmarked) the result was AC50 31.62 µM (falling, single point).
For O=C(/C=C/N1CCOCC1)c1ccc(-c2ccccc2)cc1 the result was AC50 10 µM (falling, partial curve).
For C[C@]1(C(=O)O)[C@@H]2CC[C@@H](O2)[C@@]1(C)C(=O)O the result was AC50 12.59 µM (falling, full curve).
For Cc1cc2c(=O)n(Cc3ccco3)c(SCC(=O)c3ccc(Cl)s3)nc2s1 the result was AC50 10 µM (falling, partial curve).
For COc1ccccc1CN(Cc1cc2cc(C)ccc2[nH]c1=O)Cc1nnnn1Cc1ccco1 the result was AC50 0.007943 µM (falling, full curve, poor fit).
For O=C(CSc1nnc(C2CC2)n1Cc1ccccc1)c1ccc(S(=O)(=O)N2CCOCC2)cc1 the result was AC50 12.59 µM (rising, partial curve).
For C=CCn1c(CC(=O)Nc2cccc(OC)c2)nnc1SCC(=O)NC1CCCCC1 the result was AC50 25.12 µM (rising, single point).
For CCOC(=O)c1c(C)[nH]c(C(=O)COC(=O)CCC(=O)c2ccc3c(c2)OCCO3)c1C the result was AC50 12.59 µM (falling, partial curve).
For Cc1cccc(N2CCN(C(=O)c3ccc(Cl)c(S(=O)(=O)NCc4ccco4)c3)CC2)c1C the result was AC50 12.59 µM (falling, partial curve).
For C=CCSc1nc2c(cc1C#N)CCC2 the result was AC50 0.1259 µM (falling, full curve, poor fit).
For CN(C)c1ncc2nc(CCc3ccccc3)c(=O)n(Cc3cccs3)c2n1 the result was AC50 10 µM (rising, partial curve).
For COCCNC(=O)CSc1nc2ccccc2c(=O)n1CC1CCCO1 (centres unmarked) the result was AC50 0.03162 µM (rising, full curve, poor fit).
For CN1CCN(c2ncc3nc(-c4cccc(C#N)c4)c(=O)n(Cc4ccc(F)cc4)c3n2)CC1 the result was AC50 3.162 µM (rising, full curve).
For COc1cc(-c2nnc(SCC(=O)c3ccccc3)o2)cc(OC)c1OC the result was AC50 5.012 µM (rising, single point).
For O=C(Nc1ccccc1N1CCCCC1)c1cccs1 the result was AC50 12.59 µM (falling, partial curve).
For O=C1NC2=C(C(=O)c3ccccc32)C(c2ccccc2)N1 (centres unmarked) the result was AC50 31.62 µM (rising, single point).
For CC1=CC(C)(C)N(C(=O)CN2C(=O)c3ccccc3C2=O)c2ccccc21 the result was AC50 6.31 µM (falling, partial curve).
For CCOC(=O)C1CCN(CCC(=O)Nc2cccc(Cl)c2)CC1 the result was AC50 12.59 µM (falling, partial curve).
For Cc1c(C(=O)c2ccc3ccccc3c2)c2cccc3c2n1[C@H](CN1CCOCC1)CO3 the result was AC50 3.981 µM (falling, full curve).
For COc1ccc2c(c1)c(=O)oc1cc(OCC(=O)N3CCCC(C)C3)ccc12 (centres unmarked) the result was AC50 0.01 µM (falling, full curve, poor fit).
For CCN(CC)S(=O)(=O)c1ccc(C(=O)OCn2nnc3ccccc3c2=O)cc1 the result was AC50 5.012 µM (falling, partial curve, poor fit).
For COc1ccc(C2C3=C(CC(C)(C)CC3=O)Oc3ncn(Cc4ccco4)c(=N)c32)cc1 (centres unmarked) the result was AC50 10 µM (rising, partial curve, poor fit).

Repeated from the top, 3 entries:

CCCCCCN(C(=O)CCCCCN1C(=O)NC(c2ccc(-c3ccccc3)cc2)C(C(=O)OCc2ccccc2)=C1C)C(C(=O)NCCCC)c1ccc(OCC(=O)OC)c(C(=O)OC)c1 (centres unmarked) read AC50 10 µM (rising, partial curve).
COc1cc(NC(=O)c2c(F)c(F)c(F)c(F)c2F)c(OC)cc1Cl read AC50 10 µM (falling, single point).
COc1ccc(-c2cc(C(=O)N3CCN(C(c4ccccc4)c4ccccc4)CC3)no2)cc1OC read AC50 12.59 µM (falling, partial curve).

From PubChem BioAssay record AID912 (NCATS, 2007).